According to the supplement of paper PMC10849652:
Some of the results follow.

Sequences of proteins named here, by UniProt entry; tags and fusion partners are left off. A change or cut given only in a name is not applied to a line headed by its entry.
UniProt Q9H3C7, whole entry, looked up: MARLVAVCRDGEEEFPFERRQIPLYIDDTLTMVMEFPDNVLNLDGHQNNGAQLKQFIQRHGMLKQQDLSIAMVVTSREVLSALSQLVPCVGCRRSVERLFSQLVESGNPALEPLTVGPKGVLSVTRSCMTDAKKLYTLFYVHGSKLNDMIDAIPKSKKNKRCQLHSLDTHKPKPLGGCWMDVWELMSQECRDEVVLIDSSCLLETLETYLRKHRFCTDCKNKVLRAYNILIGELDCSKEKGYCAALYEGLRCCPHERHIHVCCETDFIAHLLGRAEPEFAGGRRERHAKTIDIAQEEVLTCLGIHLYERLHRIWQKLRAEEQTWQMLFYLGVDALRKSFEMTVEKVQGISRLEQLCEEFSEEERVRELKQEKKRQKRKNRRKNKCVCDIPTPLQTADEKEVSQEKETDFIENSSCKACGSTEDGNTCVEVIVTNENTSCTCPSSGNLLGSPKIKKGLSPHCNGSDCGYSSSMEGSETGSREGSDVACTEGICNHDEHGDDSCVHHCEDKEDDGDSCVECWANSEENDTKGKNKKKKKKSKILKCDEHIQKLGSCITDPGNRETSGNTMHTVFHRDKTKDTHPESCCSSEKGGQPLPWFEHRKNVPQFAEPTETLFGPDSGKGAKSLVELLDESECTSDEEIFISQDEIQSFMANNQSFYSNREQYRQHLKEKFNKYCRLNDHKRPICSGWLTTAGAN
UniProt Q86YP4: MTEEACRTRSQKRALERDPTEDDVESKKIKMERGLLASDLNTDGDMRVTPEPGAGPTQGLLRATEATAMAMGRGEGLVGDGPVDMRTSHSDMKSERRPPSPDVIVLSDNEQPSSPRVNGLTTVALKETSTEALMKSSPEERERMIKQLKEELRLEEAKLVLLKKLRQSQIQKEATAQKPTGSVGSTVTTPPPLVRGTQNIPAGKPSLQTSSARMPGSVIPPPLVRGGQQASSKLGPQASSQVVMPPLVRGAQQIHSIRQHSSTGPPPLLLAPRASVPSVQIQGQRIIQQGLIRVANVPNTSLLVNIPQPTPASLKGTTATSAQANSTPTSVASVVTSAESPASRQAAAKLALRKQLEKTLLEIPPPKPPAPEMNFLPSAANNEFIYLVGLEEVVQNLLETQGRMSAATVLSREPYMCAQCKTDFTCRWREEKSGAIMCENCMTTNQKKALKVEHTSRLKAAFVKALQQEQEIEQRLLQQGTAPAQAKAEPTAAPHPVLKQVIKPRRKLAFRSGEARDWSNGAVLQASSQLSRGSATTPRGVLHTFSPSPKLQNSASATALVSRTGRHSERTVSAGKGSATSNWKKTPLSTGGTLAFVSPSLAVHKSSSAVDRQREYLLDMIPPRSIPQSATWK
UniProt P38435: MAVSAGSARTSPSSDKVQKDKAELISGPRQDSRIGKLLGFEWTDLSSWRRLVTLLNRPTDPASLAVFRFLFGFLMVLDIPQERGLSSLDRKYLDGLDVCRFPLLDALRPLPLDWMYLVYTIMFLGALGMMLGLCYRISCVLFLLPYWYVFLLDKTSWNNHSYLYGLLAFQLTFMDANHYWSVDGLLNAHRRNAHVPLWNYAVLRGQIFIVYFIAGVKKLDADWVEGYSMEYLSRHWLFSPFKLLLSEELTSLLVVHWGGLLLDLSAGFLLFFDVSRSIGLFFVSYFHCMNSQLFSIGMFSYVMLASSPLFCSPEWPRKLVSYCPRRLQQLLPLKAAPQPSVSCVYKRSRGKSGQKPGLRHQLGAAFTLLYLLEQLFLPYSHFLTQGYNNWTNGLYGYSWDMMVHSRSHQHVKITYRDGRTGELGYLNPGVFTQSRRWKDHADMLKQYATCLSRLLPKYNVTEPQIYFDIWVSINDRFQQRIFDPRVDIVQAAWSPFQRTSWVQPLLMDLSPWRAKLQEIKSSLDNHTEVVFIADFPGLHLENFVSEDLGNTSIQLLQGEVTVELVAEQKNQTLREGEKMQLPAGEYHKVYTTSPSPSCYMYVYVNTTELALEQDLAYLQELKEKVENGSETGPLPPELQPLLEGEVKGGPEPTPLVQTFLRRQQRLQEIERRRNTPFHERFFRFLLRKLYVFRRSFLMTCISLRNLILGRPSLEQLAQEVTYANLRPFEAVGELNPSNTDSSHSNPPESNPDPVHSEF
UniProt Q9C0B1, whole entry, looked up: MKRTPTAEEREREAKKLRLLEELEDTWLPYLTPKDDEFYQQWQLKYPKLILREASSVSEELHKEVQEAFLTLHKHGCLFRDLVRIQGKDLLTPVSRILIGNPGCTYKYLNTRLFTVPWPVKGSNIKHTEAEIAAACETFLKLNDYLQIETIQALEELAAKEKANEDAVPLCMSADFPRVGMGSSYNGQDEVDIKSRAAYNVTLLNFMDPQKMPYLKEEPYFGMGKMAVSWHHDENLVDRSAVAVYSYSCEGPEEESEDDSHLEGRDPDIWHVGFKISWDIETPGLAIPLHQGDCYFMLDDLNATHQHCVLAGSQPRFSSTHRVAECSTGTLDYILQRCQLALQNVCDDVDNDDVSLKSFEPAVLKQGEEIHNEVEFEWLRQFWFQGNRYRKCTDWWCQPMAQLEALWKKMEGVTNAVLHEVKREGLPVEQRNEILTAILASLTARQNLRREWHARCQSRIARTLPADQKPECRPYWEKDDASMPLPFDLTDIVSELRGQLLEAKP
UniProt P35637: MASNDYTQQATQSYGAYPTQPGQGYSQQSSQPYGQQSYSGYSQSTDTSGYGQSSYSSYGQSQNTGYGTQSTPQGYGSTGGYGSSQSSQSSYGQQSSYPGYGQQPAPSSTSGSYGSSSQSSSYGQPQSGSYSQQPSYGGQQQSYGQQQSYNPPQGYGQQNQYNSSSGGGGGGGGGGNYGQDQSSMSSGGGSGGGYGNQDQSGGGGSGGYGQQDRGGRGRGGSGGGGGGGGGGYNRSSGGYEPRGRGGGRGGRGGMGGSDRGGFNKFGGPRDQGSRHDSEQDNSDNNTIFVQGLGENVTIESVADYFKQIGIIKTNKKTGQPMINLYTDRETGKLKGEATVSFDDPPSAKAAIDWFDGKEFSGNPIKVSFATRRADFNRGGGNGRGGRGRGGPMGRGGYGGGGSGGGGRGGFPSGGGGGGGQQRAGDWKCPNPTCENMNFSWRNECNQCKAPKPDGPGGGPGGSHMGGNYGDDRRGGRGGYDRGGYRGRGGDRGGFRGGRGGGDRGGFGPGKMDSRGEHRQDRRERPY
UniProt P36268: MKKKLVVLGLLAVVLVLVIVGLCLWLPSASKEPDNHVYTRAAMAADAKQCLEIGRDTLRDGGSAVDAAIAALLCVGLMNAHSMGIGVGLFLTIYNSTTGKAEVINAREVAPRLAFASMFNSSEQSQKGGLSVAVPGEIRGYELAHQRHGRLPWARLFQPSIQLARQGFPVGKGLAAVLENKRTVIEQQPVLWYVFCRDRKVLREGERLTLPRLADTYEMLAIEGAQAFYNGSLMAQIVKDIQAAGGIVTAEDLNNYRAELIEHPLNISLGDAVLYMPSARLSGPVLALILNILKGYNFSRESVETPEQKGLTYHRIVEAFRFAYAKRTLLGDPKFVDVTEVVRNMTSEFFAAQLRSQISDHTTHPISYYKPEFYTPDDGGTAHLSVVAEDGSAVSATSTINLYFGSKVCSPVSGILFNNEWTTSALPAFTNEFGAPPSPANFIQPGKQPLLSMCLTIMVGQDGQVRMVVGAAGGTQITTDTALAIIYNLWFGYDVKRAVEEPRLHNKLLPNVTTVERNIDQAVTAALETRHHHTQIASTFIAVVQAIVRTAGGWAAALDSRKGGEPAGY
UniProt Q9NY12: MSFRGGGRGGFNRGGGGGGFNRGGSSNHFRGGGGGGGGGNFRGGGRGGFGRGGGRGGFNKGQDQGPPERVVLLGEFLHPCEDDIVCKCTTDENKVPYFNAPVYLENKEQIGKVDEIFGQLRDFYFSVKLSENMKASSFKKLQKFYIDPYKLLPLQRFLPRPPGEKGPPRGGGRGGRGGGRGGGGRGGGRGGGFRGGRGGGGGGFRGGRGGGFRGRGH
UniProt Q01415: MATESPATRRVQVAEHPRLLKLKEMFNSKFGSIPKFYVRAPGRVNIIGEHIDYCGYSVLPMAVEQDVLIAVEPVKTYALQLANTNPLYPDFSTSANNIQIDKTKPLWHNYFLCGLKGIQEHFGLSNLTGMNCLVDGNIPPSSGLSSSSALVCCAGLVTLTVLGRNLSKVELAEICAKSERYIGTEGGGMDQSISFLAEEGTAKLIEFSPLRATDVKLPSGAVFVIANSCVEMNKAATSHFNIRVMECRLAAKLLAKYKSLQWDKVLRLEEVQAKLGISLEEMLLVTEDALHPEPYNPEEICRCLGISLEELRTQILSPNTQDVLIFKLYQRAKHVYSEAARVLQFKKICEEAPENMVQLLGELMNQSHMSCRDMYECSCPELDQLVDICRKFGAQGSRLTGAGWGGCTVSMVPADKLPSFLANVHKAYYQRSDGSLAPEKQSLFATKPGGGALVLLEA
UniProt P51114, whole entry, looked up: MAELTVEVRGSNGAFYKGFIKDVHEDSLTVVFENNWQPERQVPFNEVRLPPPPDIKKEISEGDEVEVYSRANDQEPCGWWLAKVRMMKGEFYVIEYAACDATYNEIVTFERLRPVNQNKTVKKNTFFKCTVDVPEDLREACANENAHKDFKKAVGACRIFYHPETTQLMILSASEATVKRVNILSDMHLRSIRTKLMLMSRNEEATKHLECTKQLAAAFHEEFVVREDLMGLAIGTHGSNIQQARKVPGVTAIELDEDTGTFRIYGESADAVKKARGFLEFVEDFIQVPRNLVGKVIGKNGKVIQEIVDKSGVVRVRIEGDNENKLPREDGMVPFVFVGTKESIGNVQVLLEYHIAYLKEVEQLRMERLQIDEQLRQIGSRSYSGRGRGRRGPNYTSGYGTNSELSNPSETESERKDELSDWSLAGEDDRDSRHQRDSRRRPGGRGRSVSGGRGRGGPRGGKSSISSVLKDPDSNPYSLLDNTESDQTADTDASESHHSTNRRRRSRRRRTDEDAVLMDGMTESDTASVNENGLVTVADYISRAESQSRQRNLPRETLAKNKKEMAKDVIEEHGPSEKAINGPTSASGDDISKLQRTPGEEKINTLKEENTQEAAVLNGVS
UniProt P30047: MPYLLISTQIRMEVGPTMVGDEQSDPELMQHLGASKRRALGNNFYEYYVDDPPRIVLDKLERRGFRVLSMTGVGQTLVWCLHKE
UniProt Q14697: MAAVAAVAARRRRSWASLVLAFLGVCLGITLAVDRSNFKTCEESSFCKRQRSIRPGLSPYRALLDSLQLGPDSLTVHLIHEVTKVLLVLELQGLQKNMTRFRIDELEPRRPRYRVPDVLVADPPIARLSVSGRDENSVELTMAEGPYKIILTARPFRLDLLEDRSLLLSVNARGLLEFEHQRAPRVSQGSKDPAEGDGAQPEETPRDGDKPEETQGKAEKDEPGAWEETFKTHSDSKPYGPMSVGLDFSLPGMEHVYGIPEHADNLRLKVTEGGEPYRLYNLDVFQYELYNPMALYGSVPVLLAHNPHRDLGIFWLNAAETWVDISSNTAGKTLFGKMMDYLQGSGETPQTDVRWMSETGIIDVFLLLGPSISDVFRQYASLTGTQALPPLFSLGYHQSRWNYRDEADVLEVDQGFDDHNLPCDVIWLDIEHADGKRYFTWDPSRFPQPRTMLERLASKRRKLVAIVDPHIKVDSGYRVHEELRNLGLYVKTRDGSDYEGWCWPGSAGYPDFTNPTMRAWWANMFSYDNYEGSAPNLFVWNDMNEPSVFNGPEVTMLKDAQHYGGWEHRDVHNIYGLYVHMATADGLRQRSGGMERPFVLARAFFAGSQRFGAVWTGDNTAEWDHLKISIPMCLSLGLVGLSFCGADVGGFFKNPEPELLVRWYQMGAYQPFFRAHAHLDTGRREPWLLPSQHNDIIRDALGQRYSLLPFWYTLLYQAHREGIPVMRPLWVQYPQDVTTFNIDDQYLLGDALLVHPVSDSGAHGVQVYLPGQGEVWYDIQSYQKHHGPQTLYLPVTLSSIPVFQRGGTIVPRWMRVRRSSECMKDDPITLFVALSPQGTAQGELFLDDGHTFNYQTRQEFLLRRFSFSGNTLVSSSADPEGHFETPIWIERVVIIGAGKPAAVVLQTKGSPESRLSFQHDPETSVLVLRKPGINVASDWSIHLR
UniProt Q92820: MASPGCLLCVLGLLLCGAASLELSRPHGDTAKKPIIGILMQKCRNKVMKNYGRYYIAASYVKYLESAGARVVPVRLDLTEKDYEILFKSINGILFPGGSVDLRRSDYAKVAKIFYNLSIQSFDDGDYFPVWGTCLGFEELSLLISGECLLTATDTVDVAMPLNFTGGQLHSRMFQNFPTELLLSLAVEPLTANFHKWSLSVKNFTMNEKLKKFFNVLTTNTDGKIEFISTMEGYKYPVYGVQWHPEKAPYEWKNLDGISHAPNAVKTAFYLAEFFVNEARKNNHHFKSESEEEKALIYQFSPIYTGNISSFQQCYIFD

Legend:
Test in all cases: log2 fold change, soluble protein after heating vs DMSO (PISA); higher = thermal stabilisation; K562 cells, 10 uM, 30 min; active = over 0.2 and 3.5 SD of the protein, either way, in both replicates (recomputed)
[1] = compound: CS(=O)(=O)c1ccc(-c2cnc(N)c(C(=O)Nc3ccccc3)n2)cc1
How it was run: (§1)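 Thermal stability values are relative to control samples and come from duplicates. They are expressed as log2 fold changes. For measurement, K562 cells (2×10^6 cells/mL) received 10 μM compound for 30 min, and aliquots were heated for 3 min over 48°C-58°C, pooled, and extracted at 4°C in PBS with 0.5% NP-40. Soluble protein, the supernatant after 21,000xg for 90 min, was quantified by TMTpro 16plex LC-MS/MS with equalised channel sums.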

crizotinib = compound: C[C@@H](Oc1cc(-c2cnn(C3CCNCC3)c2)cnc1N)c1c(Cl)ccc(F)c1Cl [crizotinib]
How it was run: as §1

[2] = compound: C[C@@H]1COCCN1C2=NC(=NC(=C2)C3(CC3)S(=O)(=O)C)C4=C5C=CNC5=CC=C4
How it was run: as §1

[3] = compound: C[C@H](C1=CC=C(C=C1)C(=O)NC2=C3C=CNC3=NC=C2)N
How it was run: as §1

duvelisib = compound: C[C@H](Nc1ncnc2nc[nH]c12)c1cc2cccc(Cl)c2c(=O)n1-c1ccccc1 [duvelisib]
How it was run: as §1

gandotinib = compound: Cc1cc(Nc2cc(CN3CCOCC3)c3nc(C)c(Cc4ccc(Cl)cc4F)n3n2)n[nH]1 [gandotinib]
How it was run: as §1

tozasertib = compound: Cc1cc(Nc2cc(N3CCN(C)CC3)nc(Sc3ccc(NC(=O)C4CC4)cc3)n2)n[nH]1 [tozasertib]
How it was run: as §1

[4] = compound: Cc1cc(SCc2sc(-c3ccc(C(F)(F)F)cc3)nc2C)ccc1OCC(=O)O
How it was run: as §1

doramapimod = compound: Cc1ccc(-n2nc(C(C)(C)C)cc2NC(=O)Nc2ccc(OCCN3CCOCC3)c3ccccc23)cc1 [doramapimod]
How it was run: as §1

ispinesib = compound: Cc1ccc(C(=O)N(CCCN)[C@@H](c2nc3cc(Cl)ccc3c(=O)n2Cc2ccccc2)C(C)C)cc1 [ispinesib]
How it was run: as §1

bafetinib = compound: Cc1ccc(NC(=O)c2ccc(CN3CC[C@H](N(C)C)C3)c(C(F)(F)F)c2)cc1Nc1nccc(-c2cncnc2)n1 [bafetinib]
How it was run: as §1

[5] = compound: Cc1cccc(CC(=O)N2CCc3c2ccc(-c2cn(C)c4ncnc(N)c24)c3F)n1
How it was run: as §1

nilotinib = compound: Cc1cn(-c2cc(NC(=O)c3ccc(C)c(Nc4nccc(-c5cccnc5)n4)c3)cc(C(F)(F)F)c2)cn1 [nilotinib]
How it was run: as §1

[6] = compound: Cc1nc(Nc2n[nH]c3c2CN(C(=O)N[C@H](CN(C)C)c2ccccc2)C3(C)C)c2sccc2n1
How it was run: as §1

dasatinib = compound: Cc1nc(Nc2ncc(C(=O)Nc3c(C)cccc3Cl)s2)cc(N2CCN(CCO)CC2)n1 [dasatinib]
How it was run: as §1

[7] = compound: Cc1ncc(-c2ccnc(Nc3ccc(S(C)(=O)=O)cc3)n2)n1C(C)C
How it was run: as §1

[8] = compound: Cn1cc(-c2ccc3c(c2)CCN3C(=O)Cc2cccc(C(F)(F)F)c2)c2c(N)ncnc21
How it was run: as §1

[9] = compound: Cn1cc(-c2ccc3nnc(C(F)(F)c4ccc5ncccc5c4)n3n2)cn1
How it was run: as §1

tipifarnib = compound: Cn1cncc1[C@@](N)(c1ccc(Cl)cc1)c1ccc2c(c1)c(-c1cccc(Cl)c1)cc(=O)n2C [tipifarnib]
How it was run: as §1

mubritinib = compound: FC(F)(F)c1ccc(/C=C/c2nc(COc3ccc(CCCCn4ccnn4)cc3)co2)cc1 [mubritinib]
How it was run: as §1

Measured: log2 fold change

FUBP1 (UniProt Q96AE4)
inactive: [1] -0.057 | crizotinib -0.13 | [2] -0.071 | [3] 0.029 | duvelisib 0.062 | gandotinib -0.049 | tozasertib -0.006 | [4] 0.064 | doramapimod 0.032 | ispinesib -0.021 | bafetinib -0.027 | [5] 0.073 | nilotinib 0.085 | [6] 0.01 | dasatinib -0.054 | [7] 0.042 | [8] 0.036 | [9] -0.049 | tipifarnib -0.138 | mubritinib 0.107

GGNBP2 (UniProt Q9H3C7)
inactive: [1] 0.035 | crizotinib -0.179 | [2] -0.28 | [3] 0.171 | duvelisib -0.2 | gandotinib -0.049 | tozasertib -0.127 | [4] -0.231 | doramapimod 0.192 | ispinesib -0.038 | bafetinib 0.178 | [5] -0.042 | nilotinib -0.109 | [6] -0.027 | dasatinib 0.132 | [7] 0 | [8] -0.16 | [9] -0.253 | tipifarnib 0.033 | mubritinib -0.1

GATAD2A isoform 3 (UniProt Q86YP4)
inactive: [1] 0 | crizotinib -0.015 | [2] 0.053 | [3] 0.013 | duvelisib -0.031 | gandotinib -0.019 | tozasertib 0.098 | [4] 0.147 | doramapimod 0.102 | ispinesib -0.109 | bafetinib 0.005 | [5] 0.012 | nilotinib -0.039 | [6] -0.13 | dasatinib -0.079 | [7] -0.075 | [8] 0.005 | [9] -0.021 | tipifarnib 0.019 | mubritinib -0.033

GGCX (UniProt P38435)
inactive: [1] -0.061 | crizotinib 0.026 | [2] -0.002 | [3] -0.019 | duvelisib -0.06 | gandotinib 0.046 | tozasertib -0.085 | [4] -0.013 | doramapimod 0.065 | ispinesib -0.087 | bafetinib 0.038 | [5] -0.081 | nilotinib 0.035 | [6] -0.074 | dasatinib -0.104 | [7] 0.012 | [8] 0.077 | [9] -0.043 | tipifarnib -0.098 | mubritinib -0.014

FTO (UniProt Q9C0B1)
inactive: [1] 0.052 | crizotinib -0.005 | [2] 0.069 | [3] -0.004 | duvelisib 0.024 | gandotinib 0.089 | tozasertib -0.034 | [4] 0.02 | doramapimod 0.017 | ispinesib 0.072 | bafetinib -0.02 | [5] -0.032 | nilotinib 0.051 | [6] 0.034 | dasatinib -0.001 | [7] -0.039 | [8] -0.005 | [9] 0.006 | tipifarnib -0.002 | mubritinib 0.082

FUS (UniProt P35637)
inactive: [1] -0.093 | crizotinib -0.001 | [2] -0.128 | [3] 0.112 | duvelisib -0.039 | gandotinib 0.057 | tozasertib -0.033 | [4] -0.019 | doramapimod 0.01 | ispinesib -0.024 | bafetinib 0.047 | [5] -0.093 | nilotinib 0.014 | [6] 0.066 | dasatinib 0.11 | [7] 0.034 | [8] -0.113 | [9] -0.01 | tipifarnib 0.169 | mubritinib -0.086

GGT2 isoform 3 (UniProt P36268)
inactive: [1] -0.038 | crizotinib 0.108 | [2] -0.026 | [3] 0.008 | duvelisib 0.102 | gandotinib -0.053 | tozasertib 0.006 | [4] -0.066 | doramapimod -0.05 | ispinesib -0.007 | bafetinib 0.032 | [5] -0.002 | nilotinib 0.004 | [6] 0.052 | dasatinib 0.02 | [7] 0.007 | [8] -0.037 | [9] 0.027 | tipifarnib 0.086 | mubritinib 0.013

GAR1 (UniProt Q9NY12)
inactive: [1] 0.003 | crizotinib -0.007 | [2] -0.263 | [3] 0.27 | duvelisib -0.114 | gandotinib 0.117 | tozasertib 0.018 | [4] 0.04 | doramapimod 0.164 | ispinesib -0.018 | bafetinib 0.156 | [5] -0.039 | nilotinib -0.025 | [6] 0.073 | dasatinib 0.196 | [7] 0.016 | [8] -0.135 | [9] -0.045 | tipifarnib 0.094 | mubritinib -0.084

GALK2 (UniProt Q01415)
inactive: [1] 0.02 | crizotinib 0.021 | [2] 0.055 | [3] -0.03 | duvelisib 0.065 | gandotinib -0.004 | tozasertib -0.017 | [4] 0.012 | doramapimod -0.002 | ispinesib 0.073 | bafetinib -0.034 | [5] 0 | nilotinib 0.039 | [6] -0.005 | dasatinib 0.013 | [7] -0.024 | [8] 0.004 | [9] 0.01 | tipifarnib -0.041 | mubritinib 0.02

GFPT1 (UniProt Q06210)
inactive: [1] 0.054 | crizotinib -0.053 | [2] 0 | [3] -0.113 | duvelisib 0.023 | gandotinib -0.053 | tozasertib -0.011 | [4] -0.005 | doramapimod -0.004 | ispinesib 0.035 | bafetinib 0.007 | [5] 0.066 | nilotinib 0.017 | [6] -0.003 | dasatinib 0.001 | [7] -0.025 | [8] 0.049 | [9] 0.014 | tipifarnib -0.066 | mubritinib 0.051

2 entries picked at random from the list so far:
GALK2 (UniProt Q01415)
inactive: [1] 0.02 | crizotinib 0.021 | [2] 0.055 | [3] -0.03 | duvelisib 0.065 | gandotinib -0.004 | tozasertib -0.017 | [4] 0.012 | doramapimod -0.002 | ispinesib 0.073 | bafetinib -0.034 | [5] 0 | nilotinib 0.039 | [6] -0.005 | dasatinib 0.013 | [7] -0.024 | [8] 0.004 | [9] 0.01 | tipifarnib -0.041 | mubritinib 0.02

GGCX (UniProt P38435)
inactive: [1] -0.061 | crizotinib 0.026 | [2] -0.002 | [3] -0.019 | duvelisib -0.06 | gandotinib 0.046 | tozasertib -0.085 | [4] -0.013 | doramapimod 0.065 | ispinesib -0.087 | bafetinib 0.038 | [5] -0.081 | nilotinib 0.035 | [6] -0.074 | dasatinib -0.104 | [7] 0.012 | [8] 0.077 | [9] -0.043 | tipifarnib -0.098 | mubritinib -0.014

Next part.

FXR1 (UniProt P51114)
inactive: [1] 0.032 | crizotinib -0.086 | [2] -0.463 | [3] 0.407 | duvelisib -0.091 | gandotinib 0.237 | tozasertib -0.032 | [4] 0.117 | doramapimod 0.099 | ispinesib -0.228 | bafetinib 0.115 | [5] -0.054 | nilotinib -0.119 | [6] -0.177 | dasatinib 0.036 | [7] -0.029 | [8] -0.207 | [9] -0.253 | tipifarnib 0.024 | mubritinib -0.178

FRRS1 (UniProt Q6ZNA5)
inactive: [1] 0.019 | crizotinib 0.032 | [2] 0.006 | [3] -0.081 | duvelisib 0.067 | gandotinib -0.073 | tozasertib 0.043 | [4] 0.064 | doramapimod -0.018 | ispinesib 0.052 | bafetinib -0.196 | [5] -0.167 | nilotinib 0.059 | [6] -0.097 | dasatinib 0.039 | [7] 0.05 | [8] 0.006 | [9] 0.012 | tipifarnib -0.081 | mubritinib 0.002

GCHFR (UniProt P30047)
inactive: [1] 0.079 | crizotinib -0.003 | [2] 0.047 | [3] 0.032 | duvelisib 0.21 | gandotinib -0.215 | tozasertib -0.245 | [4] -0.064 | doramapimod -0.021 | ispinesib 0.058 | bafetinib -0.113 | [5] -0.101 | nilotinib -0.008 | [6] 0.054 | dasatinib 0.05 | [7] -0.111 | [8] 0.226 | [9] -0.142 | tipifarnib -0.005 | mubritinib 0.048

GANAB isoform 2 (UniProt Q14697)
inactive: [1] 0.021 | crizotinib 0.02 | [2] -0.047 | [3] 0.111 | duvelisib -0.057 | gandotinib 0.037 | tozasertib 0.027 | [4] 0.059 | doramapimod 0.028 | ispinesib -0.016 | bafetinib 0.021 | [5] 0.015 | nilotinib -0.004 | [6] 0.024 | dasatinib 0 | [7] -0.03 | [8] -0.066 | [9] 0.009 | tipifarnib 0.042 | mubritinib -0.071

GGH (UniProt Q92820)
inactive: [1] 0.01 | crizotinib -0.019 | [2] -0.021 | [3] -0.023 | duvelisib -0.007 | gandotinib 0.02 | tozasertib 0.01 | [4] -0.013 | doramapimod 0.006 | ispinesib 0 | bafetinib -0.066 | [5] -0.027 | nilotinib 0.021 | [6] 0.029 | dasatinib 0.021 | [7] -0.035 | [8] -0.022 | [9] 0.009 | tipifarnib 0.062 | mubritinib 0.039

FTSJ1 (UniProt Q9UET6)
inactive: [1] 0.051 | crizotinib -0.095 | [2] 0.061 | [3] 0.026 | duvelisib 0.106 | gandotinib -0.058 | tozasertib -0.014 | [4] 0 | doramapimod 0.025 | ispinesib -0.08 | bafetinib 0.031 | [5] -0.016 | nilotinib -0.027 | [6] 0.064 | dasatinib -0.083 | [7] -0.014 | [8] 0.016 | [9] 0.045 | tipifarnib -0.015 | mubritinib 0.077
